The list shows a part of the results. Some salts or complexes appear as unconnected parts, following the source record.
Assay: selective activators of receptor GPR55 – imaging, U2OS cells, beta-arrestin-GFP redistribution, primary screen (AID 1961);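 also: U2OS osteosarcoma cells stably expressing GPR55 and beta-arrestin-GFP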
Conditions: measured here: cytotoxicity, cells analyzed, at 10 µM

SMILES | cell count
CP(=O)(Nc1ccc(Cl)cc1Cl)Oc1ccccc1 (stereo not drawn) | 227 cells
CP(=O)(OCCOc1ccccc1)OCCOc1ccccc1 | 221 cells
Nc1cccc2ccc([As](=O)(O)O)cc12 | 325 cells
CCN(N=Nc1nonc1N)c1nonc1N | 302 cells
Cc1ccc(N/C(=N/P(=O)(N2CCOCC2)N2CCOCC2)N2CCOCC2)cc1 | 316 cells
COc1ccccc1OP(C)(=O)Nc1ccc(Br)cc1 (stereo not drawn) | 337 cells
NC(=O)c1cc([N+](=O)[O-])cc([N+](=O)[O-])c1N | 229 cells
CN1CCCC(OC(=O)C(c2ccccc2)c2ccccc2)C1 (stereo not drawn) | 291 cells
Clc1ccc(Cl)c(NC2=NCC(CBr)S2)c1 (stereo not drawn) | 227 cells
CN(C)CCOC(=O)C(O)(c1ccccc1)C1CCCC1 (stereo not drawn) | 369 cells
Cc1ccc(OP(=O)(Nc2nccs2)Oc2ccc(C)cc2)cc1 | 339 cells
COc1ccccc1OP(=O)(Nc1ccc(C)cn1)Oc1ccccc1OC | 372 cells
COc1ccc(OP(C)(=O)Nc2ccccn2)cc1 (stereo not drawn) | 488 cells
O=C(NC(Sc1ccncn1)C(Cl)(Cl)Cl)c1ccccc1 (stereo not drawn) | 324 cells
Cc1c2non([O-])c-2c(C)[n+](=O)[n+]1[O-] | 320 cells
Oc1ccccc1CNc1ccccn1 | 349 cells
Cc1c(NP(C)(=O)Oc2ccc(C(C)C)cc2)c(=O)n(-c2ccccc2)n1C (stereo not drawn) | 396 cells
Nc1cc(N)c2nonc2c1[N+](=O)[O-] | 332 cells
CC(C)CC(=O)NC(Sc1ccc(Cl)cc1)C(Cl)(Cl)Cl (stereo not drawn) | 390 cells
O=[N+]([O-])c1cc([N+](=O)[O-])c(Nc2ccccn2)c([N+](=O)[O-])c1 | 368 cells
CCc1ccc(OP(C)(=O)O)cc1 | 339 cells
COc1ccccc1OP(C)(=O)Nc1ccc(C)cc1C (stereo not drawn) | 364 cells

SMILES | cell count
CP(=O)(Nc1ccccn1)Oc1ccccc1 (stereo not drawn) | 368 cells
COc1ccc(OP(C)(=O)Nc2ccc(Br)cc2)cc1 (stereo not drawn) | 351 cells
COc1ccc(C2=NCC(CBr)S2)cc1 (stereo not drawn) | 261 cells
CCN(CC)CC(O)COC(=O)C(O)(c1ccccc1)C1CCCCC1 (stereo not drawn) | 379 cells
CCc1ccc(OP(C)(=O)Nc2cccnc2)cc1 (stereo not drawn) | 244 cells
CCc1nc2c(n1)c1c(non1O)c1c2no[n+]1[O-] | 368 cells
O=[N+]([O-])c1cc([N+](=O)[O-])c(CCNc2ccccc2)c([N+](=O)[O-])c1 | 301 cells
CP(=O)(Oc1ccccc1)N1CCOC1=O (stereo not drawn) | 256 cells
Cc1ccc(NP(=O)(Oc2ccccc2)Oc2ccccc2)nc1 | 285 cells
O=C(OCCCN1CCCC1)C(O)(c1ccccc1)C1CCCCC1 (stereo not drawn) | 316 cells
O=[N+]([O-])c1cccc2n[nH]nc12 | 406 cells
CC(=O)N1C2C3N(C(C)=O)C1C1N(C(C)=O)C(C(N1C(C)=O)N3C(C)=O)N2C(C)=O | 368 cells
COc1ccccc1OP(C)(=O)Nc1c(C)n(C)n(-c2ccccc2)c1=O (stereo not drawn) | 324 cells
CP(=O)(Nc1ccc(Cl)cc1)Oc1ccc(F)cc1 (stereo not drawn) | 375 cells
CCN(/C(=N/P(=O)(N1CCOCC1)N1CCOCC1)N1CCOCC1)c1ccc(OC)cc1 | 256 cells
C[N+]1=C2C=CC=CC=C2SC12C([N+](=O)[O-])=CC([N+](=O)[O-])=C[C-]2[N+](=O)[O-] (stereo not drawn) | 338 cells
COc1ccccc1OP(C)(=O)Nc1ccccc1Br (stereo not drawn) | 266 cells
CC(C)(C)c1ccc(OP(C)(=O)O)cc1 | 371 cells
Nc1ccc([As](=O)(O)c2ccc(N)cc2)cc1 | 348 cells
CC1CCN(C(=O)Oc2c(Cl)cc(Cl)c3cccnc23)CC1 | 371 cells
CN(C)C(=O)OCCc1n(C)cc[n+]1C | 363 cells
CN(C)C(=O)c1c([N+](=O)[O-])cc([N+](=O)[O-])cc1[N+](=O)[O-] | 272 cells

SMILES | cell count
CC(C)=N/N=C(\N)N[N+](=O)[O-] | 411 cells
CP(=O)(OC12CC3CC(CC(C3)C1)C2)OC12CC3CC(CC(C3)C1)C2 | 381 cells
O=C(Nc1cc([As](=O)(O)O)ccc1O)c1ccccc1 | 333 cells
CCOC(=O)c1ccc(NP(C)(=O)Oc2ccc(Cl)cc2)cc1 (stereo not drawn) | 334 cells
O=[N+]([O-])c1ncn(CCn2ncnc2[N+](=O)[O-])n1 | 214 cells
CC(C)(C)C(=O)NC(Sc1ccncn1)C(Cl)(Cl)Cl (stereo not drawn) | 339 cells
O=C(O)CNc1ccc([As](=O)(O)O)cc1 | 385 cells
O=[N+]([O-])c1cccc(NC2=NCC(CBr)S2)c1 (stereo not drawn) | 325 cells
O=P(Nc1ccccn1)(c1ccc(Br)cc1)c1ccc(Br)cc1 | 452 cells
CN(C)C1(CNC(=O)c2ccc(Cl)c(S(N)(=O)=O)c2)CCCCC1 | 364 cells
COc1ccc(OP(C)(=O)Nc2cccc(Br)c2)cc1 (stereo not drawn) | 347 cells
COc1ccc(NP(C)(=O)Oc2ccccc2OC)cc1 (stereo not drawn) | 235 cells
C[C@H]1OP(=O)(Oc2ccccc2)[C@H](O)[C@H](O)[C@H]1N=[N+]=[N-] (stereo partly drawn) | 381 cells
CN(C)CCOC(=O)C(O)(c1ccccc1)C1CCCCC1 (stereo not drawn) | 320 cells
O=P(Nc1nc2ccccc2s1)(c1ccccc1)c1ccccc1 | 346 cells
O=[N+]([O-])c1cc([N+](=O)[O-])c(NCC2CCS(=O)(=O)C2)c([N+](=O)[O-])c1 (stereo not drawn) | 246 cells
Cc1cc(-c2cccc3ccccc23)c(C)cn1.O=[N+]([O-])c1cc([N+](=O)[O-])c(O)c([N+](=O)[O-])c1 | 396 cells
O=[As](O)(c1ccccc1)c1ccc(O)cc1 | 382 cells
O=[N+]([O-])c1ccc(O)c(/C=N/Nc2ccc([N+](=O)[O-])cc2[N+](=O)[O-])c1 | 402 cells
O=[N+]([O-])c1ncn(CCn2cnc([N+](=O)[O-])n2)n1 | 376 cells
CC(=O)NC(SC(=S)N(C)C)C(Cl)(Cl)Cl (stereo not drawn) | 353 cells
O=[N+]([O-])c1ccc(OP2(=O)COCCO2)cc1 (stereo not drawn) | 400 cells

SMILES | cell count
O=C(OC1CN2CCC1CC2)c1cccc(Cl)c1 (stereo not drawn) | 334 cells
C(Cc1nn[nH]n1)Cc1nn[nH]n1 | 341 cells
Nc1ccc([As](=O)(O)c2ccc([N+](=O)[O-])cc2)cc1 | 364 cells
CC(C)C(=O)NC(Sc1ccccc1)C(Cl)(Cl)Cl (stereo not drawn) | 299 cells
O=P(Nc1nccs1)(c1ccccc1)c1ccccc1 | 364 cells
CP(=O)(Nc1ccc(SC(F)(F)F)cc1)Oc1ccc(F)cc1 (stereo not drawn) | 373 cells
c1nnnn1CCn1cnnn1 | 331 cells
CCOP(C)(=S)SCC(=O)NC(C)(CC)C(=O)O (stereo not drawn) | 272 cells
CP(=O)(Nc1ccc2c(c1)OCCO2)Oc1ccccc1 (stereo not drawn) | 270 cells
Cc1ccccc1NP(C)(=O)Nc1ccccc1C | 387 cells
CCOc1ccc(C2=NCC(CBr)S2)cc1 (stereo not drawn) | 387 cells
O=P1(Nc2nc3ccc(Cl)cc3s2)COc2ccccc2O1 (stereo not drawn) | 372 cells
CC(C)c1ccc(OP(C)(=O)Nc2ccc(SC(F)(F)F)cc2)cc1 (stereo not drawn) | 313 cells
CC(C)(C)C(=O)NC(Sc1ccccc1)C(Cl)(Cl)Cl (stereo not drawn) | 270 cells
CP(=O)(Nc1ccccc1F)Oc1ccccc1 (stereo not drawn) | 296 cells
C[C@H]1OP(=O)(Oc2ccccc2)C[C@@H]2O[C@@H]21 (stereo partly drawn) | 383 cells
C[C@@H]1C=CCP(=O)(Oc2ccccc2)O1 (stereo partly drawn) | 397 cells
O=C(OCCN1CCN(CCOCc2ccccc2)CC1)C(O)(c1ccccc1)c1ccccc1 | 337 cells
O=C(OC1CN2CCC1CC2)c1ccc([N+](=O)[O-])cc1 (stereo not drawn) | 313 cells
CC(=O)c1ccc(N2CC2c2ccncc2)cc1 (stereo not drawn) | 355 cells
CC(=O)Nc1ccc(Oc2c([N+](=O)[O-])cc([N+](=O)[O-])cc2[N+](=O)[O-])cc1 | 257 cells
CC(=O)Nc1ccc([As](=O)(O)O)c(O)c1 | 383 cells

SMILES | cell count
COc1ccc2c(c1O)-c1c(O)c(OC)cc3c1[C@H](C2)[N+](C)(C)CC3.O=[N+]([O-])c1cc([N+](=O)[O-])c([O-])c([N+](=O)[O-])c1[O-] | 348 cells
CCOC(=O)NC(Sc1ccccc1)C(Cl)(Cl)Cl (stereo not drawn) | 375 cells
Cc1ccc(NP(=O)(Oc2cccc(C)c2)Oc2cccc(C)c2)nc1 | 390 cells
c1ccc(-c2nn[nH]n2)c(-c2nn[nH]n2)c1 | 340 cells
CCNC(=S)/N=C(\N)N[N+](=O)[O-] | 397 cells
O=C(NC1CCS(=O)(=O)C1)NP(=S)(Oc1ccccc1)Oc1ccccc1 (stereo not drawn) | 254 cells
COc1ccc(OP(C)(=O)Nc2ccc(SC(F)(F)F)cc2)cc1 (stereo not drawn) | 261 cells
CCOC(=O)c1ccc(NP(C)(=O)Oc2ccc(F)cc2)cc1 (stereo not drawn) | 389 cells
CCN(CC)CCCOC(=O)C(O)(c1ccccc1)C1CCCCC1 (stereo not drawn) | 367 cells
CCC(=O)N1C2C3N(C(=O)CC)C1C1N(C(=O)CC)C(C(N1C(=O)CC)N3C(=O)CC)N2C(=O)CC | 395 cells
O=C(OC1CN2CCC1CC2)c1ccccc1 (stereo not drawn) | 272 cells
Cc1ccc(OP(=O)(Nc2ccccn2)Oc2ccc(C)cc2)cc1 | 229 cells
CC(=O)NC(SC(=S)N(CC(C)C)CC(C)C)C(Cl)(Cl)Cl (stereo not drawn) | 319 cells
COC(=O)c1cc2c(s1)N=C(c1ccccc1)N(C)P2(=O)N1CCOCC1 (stereo not drawn) | 436 cells
CCCCCOc1ccc(NP(C)(=O)Oc2ccc(Cl)cc2Cl)cc1 (stereo not drawn) | 373 cells
O=c1c2cc([N+](=O)[O-])ccc2[nH]c2c([N+](=O)[O-])cc([N+](=O)[O-])cc12 | 339 cells
O=[N+]([O-])c1cc([N+](=O)[O-])c(OC2CCCCC2O)c([N+](=O)[O-])c1 (stereo not drawn) | 431 cells
CN(C)C(=O)Oc1noc2ccccc12 | 315 cells
Cc1ccccc1OP(=O)(Nc1ccccn1)Oc1ccccc1C | 336 cells
CP(=O)(Nc1ccccc1)Oc1ccc(F)cc1 (stereo not drawn) | 379 cells
